PubChem BioAssay AID1508597 | Cure First – 2020
Test: 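Knock-downs altering ovarian cancer cell survival with or without PARP inhibitor rucaparib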 (primary screen). Cells: human ovarian carcinoma lines grown from tumours: OCI-P5x (papillary serous) and OCI-C5x (clear cell). Knock-down reagent: siRNA pool against human genes, 1.25 pmol siRNA per well. Time to read-out: 72 h or 96 h, depending on the cell culture. Conditions: rucaparib 20 µM (about IC30) or vehicle, present until read-out. Rucaparib or vehicle: Vehicle. Cell line: OCI-P5x (serous). Detection: 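ATP luminescence measured at 72 or 96 h according to the culture, then normalised and expressed as percent viability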. Direction: viability, normalised: higher = more viable cells remaining. Rule for the call: 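a well counts as a hit if its normalised viability is under 80 percent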. Calls: active = viability under 80%; inactive = viability 80% or more.
Shown is a random part of the about 2,100 reagents, in one setting of the screen. 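Calls flag viability under 80% in either arm, not effects specific to rucaparib; the reference for percent is not stated.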 Not given: the 100% reference.

RAF1 (Raf-1 proto-oncogene, serine/threonine kinase), technical replicate 1 showed viability, normalised (%) = 101; inactive.
RAF1 (Raf-1 proto-oncogene, serine/threonine kinase), technical replicate 2 showed viability, normalised (%) = 84.4; inactive.
RAF1 (Raf-1 proto-oncogene, serine/threonine kinase), technical replicate 3 gave viability, normalised (%) = 94.2; inactive.
PRDM4 (PR/SET domain 4), technical replicate 1 gave viability, normalised (%) = 73.5; active.
PRDM4 (PR/SET domain 4), technical replicate 2 showed viability, normalised (%) = 85.6; inactive.
With PRDM4 (PR/SET domain 4), technical replicate 3, the entry reads viability, normalised (%) = 82.1; inactive.
SETD4 (SET domain containing 4), technical replicate 1 scored viability, normalised (%) = 66.8; active.
For SETD4 (SET domain containing 4), technical replicate 2, the entry reads viability, normalised (%) = 75.2; active.
With SETD4 (SET domain containing 4), technical replicate 3, the values are viability, normalised (%) = 80.9; inactive.
BRD1 (bromodomain containing 1), technical replicate 1 showed viability, normalised (%) = 58.1; active.
For BRD1 (bromodomain containing 1), technical replicate 2, the values are viability, normalised (%) = 56.1; active.
For BRD1 (bromodomain containing 1), technical replicate 3, the values are viability, normalised (%) = 76.2; active.
With CKB (creatine kinase B), technical replicate 1 the deposit lists viability, normalised (%) = 114; inactive.
CKB (creatine kinase B), technical replicate 2 gave viability, normalised (%) = 108; inactive.
For CKB (creatine kinase B), technical replicate 3 the deposit lists viability, normalised (%) = 104; inactive.
With CFAP46 (cilia and flagella associated protein 46), technical replicate 1, the entry reads viability, normalised (%) = 83.1; inactive.
With CFAP46 (cilia and flagella associated protein 46), technical replicate 2, the values are viability, normalised (%) = 87.8; inactive.
CFAP46 (cilia and flagella associated protein 46), technical replicate 3 gave viability, normalised (%) = 79.8; active.
For ULK2 (unc-51 like autophagy activating kinase 2), technical replicate 1, the entry reads viability, normalised (%) = 70.1; active.
For ULK2 (unc-51 like autophagy activating kinase 2), technical replicate 2, the entry reads viability, normalised (%) = 79.2; active.
ULK2 (unc-51 like autophagy activating kinase 2), technical replicate 3 showed viability, normalised (%) = 81.6; inactive.
PDE5A (phosphodiesterase 5A), technical replicate 1 showed viability, normalised (%) = 75.8; active.
With PDE5A (phosphodiesterase 5A), technical replicate 2, the values are viability, normalised (%) = 59.2; active.
PDE5A (phosphodiesterase 5A), technical replicate 3 gave viability, normalised (%) = 79.7; active.
PRDM2 (PR/SET domain 2), technical replicate 1 gave viability, normalised (%) = 63.5; active.
For PRDM2 (PR/SET domain 2), technical replicate 2, the values are viability, normalised (%) = 27; active.
PRDM2 (PR/SET domain 2), technical replicate 3 showed viability, normalised (%) = 86.1; inactive.
With H4C6 (H4 clustered histone 6), technical replicate 1 the deposit lists viability, normalised (%) = 74.7; active.
For H4C6 (H4 clustered histone 6), technical replicate 2, the values are viability, normalised (%) = 77.4; active.
With H4C6 (H4 clustered histone 6), technical replicate 3 the deposit lists viability, normalised (%) = 86.3; inactive.
RIC8A (RIC8 guanine nucleotide exchange factor A), technical replicate 1 scored viability, normalised (%) = 55.2; active.
RIC8A (RIC8 guanine nucleotide exchange factor A), technical replicate 2 gave viability, normalised (%) = 53.7; active.
With RIC8A (RIC8 guanine nucleotide exchange factor A), technical replicate 3, the entry reads viability, normalised (%) = 72.6; active.

In a second layout: entries from further up.
BRD1 (bromodomain containing 1), technical replicate 1
- viability, normalised (%): 58.1
- call: active

BRD1 (bromodomain containing 1), technical replicate 2
- viability, normalised (%): 56.1
- call: active

BRD1 (bromodomain containing 1), technical replicate 3
- viability, normalised (%): 76.2
- call: active

CKB (creatine kinase B), technical replicate 1
- viability, normalised (%): 114
- call: inactive
